Test results from publication PMC10388354, “Ir(III) Compounds Containing a Terdentate Ligand Are Potent Inhibitors of Proliferation and Effective Antimetastatic Agents in Aggressive Triple-Negative Breast Cancer Cells” (Journal of Medicinal Chemistry, 2023).

Key:
[1] = system: MCF-7 cells; assay: Antiproliferative activity, sulforhodamine B (SRB) assay; format: cell-based; details: Homo sapiens, MCF7, 72 h incubation, mean ± SD
Experimental: (§1) The antiproliferative activity of the investigated compounds was evaluated using the SRB assay. The cells were seeded in 96-well tissue culture plates at a density of 3 × 10^3 cells/well in 100 μL of the medium. After overnight incubation in a humidified CO2 incubator, the cells were treated with the tested compounds in a final volume of 200 μL/well. After an additional 72 h, cells were washed with PBS and fixed for 1 h at 4 °C with trichloroacetic acid. Then, the cells were stained with 0.4% SRB dye for 30 min. Stained cells were dissolved with Tris (10 mM). The cell viability was evaluated by measurement of the absorbance at 570 nm using an absorbance reader (SPARK TECAN, SCHOELLER). The reading values were converted to the percentage of control (% cell survival). Antiproliferative effects were expressed as IC50 values calculated from curves constructed by plotting cell survival (%) versus drug concentration (μM) (IC50 = concentration of the agent inhibiting cell growth by 50%). Concentrations of compounds present in the medium during the treatment were verified by FAAS or ICP-MS.

[2] = system: MDA-MB-231 cells; assay: as above; format: cell-based; details: Homo sapiens, 72 h incubation, mean ± SD
Experimental: as §1

Q: Which IC50 [1] does the source give for `COc1cccc2c1C(=O)c1c(O)c3c(c(O)c1C2=O)C[C@@](O)(C(=O)CO)C[C@@H]3O[C@H]1C[C@H](N)[C@H](O)[C@H](C)O1` [Dox, doxorubicin] here?
A: The IC50 was 330 ± 70 nM.

Q: What about the IC50 [2] of the same compound?
A: Its IC50 is 620 ± 80 nM.
